Measured values from patent US20080220446A1, “Method for Detecting and/or Removing Protein and/or Peptide Comprising a Cross-Beta Structure From an Aqueous Solution Comprising a Protein” (priority 2005, published 2008).
Results are given in words; binding and its absence hold for the method and conditions named. Some binding calls cover weakened binding; strength is not graded here. Where a sequence is shown, tags or fusion partners need not be part of it.

Amino acid sequences for entries named in this document (tags omitted). Residues count along the entry.
UniProt P01012, residues 2-386: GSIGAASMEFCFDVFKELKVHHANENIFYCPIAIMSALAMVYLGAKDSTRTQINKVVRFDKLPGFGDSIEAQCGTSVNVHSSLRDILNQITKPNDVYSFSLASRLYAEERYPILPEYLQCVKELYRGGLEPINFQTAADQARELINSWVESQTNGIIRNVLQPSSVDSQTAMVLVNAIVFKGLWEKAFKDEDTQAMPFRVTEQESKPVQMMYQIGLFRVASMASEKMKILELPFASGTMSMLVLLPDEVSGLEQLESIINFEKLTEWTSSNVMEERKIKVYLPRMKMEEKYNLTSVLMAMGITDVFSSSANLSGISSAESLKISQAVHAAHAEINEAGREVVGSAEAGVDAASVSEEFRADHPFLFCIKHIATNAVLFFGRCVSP

Columns and labels:
[1] = target: heat-denatured ovalbumin (dOVA) (UniProt P01012); experiment: ELISA, coated protein, dilution series of tPA F-EGF
native ovalbumin (nOVA) = native ovalbumin (nOVA) (UniProt P01012); experiment: as above

B1: human tissue-type plasminogen activator finger EGF (tPA F-EGF) fragment with carboxy-terminal FLAG-tag-His-tag (protein, UniProt P00750 36-122, looked up, not shown: small tags and cut ends)
chain: SYQVICRDEKTQMIYQQHQSWLRPVLRSNRVEYCWCNSGRAQCHSVPVKSCSEPRCFNGGTCQQALYFSDFVCQCPEGFAGKCCEID
binding [1]: binds
binding (native ovalbumin (nOVA)): binds
